# PubChem BioAssay AID1259254, NCATS | 2017
# Test: 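Genome-wide screen for genes that prevent DNA re-replication in cancer cells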 (primary screen)
# Cells: human HCT116 colorectal cancer cells
# Knock-down reagent: single siRNA against human genes
# Timing: 3 days
# Detection: 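Imaged Hoechst DNA stain sorts each cell into a cycle phase by DNA amount; per plate, G2 fraction set to 0% for non-targeting and 100% for GMNN siRNA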
# Scale: G2 robust z-score: higher = more G2 cells, more excess DNA replication
# Active means: 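An siRNA counts as active if its G2 robust z-score lies at least 5 MADs above the screen median; here such calls match roughly 38% of GMNN control or more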
# The deposit covers about 59,000 reagents; this is a part drawn at random. Of all reagents, about 1,550 (2.6%) were called active. 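G2 share is only a proxy for re-replication; each gene was hit by three separate siRNAs, and active genes were retested.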 Unmarked entries are inactive. Reagents against one gene are numbered here. Further read-outs or replicates are left out here. Not stated in the record: the amount of reagent.
The first 5 records, to show the layout:
Gene,reagent,G2 robust z-score
MTRES1 (mitochondrial transcription rescue factor 1),1,-0.692
MTRES1 (mitochondrial transcription rescue factor 1),2,0.566
MTRES1 (mitochondrial transcription rescue factor 1),3,0.139
SSR4 (signal sequence receptor subunit 4),1,-0.258
SSR4 (signal sequence receptor subunit 4),2,-0.868

Main list, from the first entry:
Gene,reagent,G2 robust z-score
MTRES1 (mitochondrial transcription rescue factor 1),1,-0.692
MTRES1 (mitochondrial transcription rescue factor 1),2,0.566
MTRES1 (mitochondrial transcription rescue factor 1),3,0.139
SSR4 (signal sequence receptor subunit 4),1,-0.258
SSR4 (signal sequence receptor subunit 4),2,-0.868
SSR4 (signal sequence receptor subunit 4),3,-0.674
CEP63 (centrosomal protein 63),1,2.03
CEP63 (centrosomal protein 63),2,1.01
CEP63 (centrosomal protein 63),3,-1.2
KLF12 (KLF transcription factor 12),1,-0.803
KLF12 (KLF transcription factor 12),2,4.33
KLF12 (KLF transcription factor 12),3,-0.276
MPPED2 (metallophosphoesterase domain containing 2),1,0.16
MPPED2 (metallophosphoesterase domain containing 2),2,0.111
MPPED2 (metallophosphoesterase domain containing 2),3,0.122
ITPRIPL1 (ITPRIP like 1),1,-1.03
ITPRIPL1 (ITPRIP like 1),2,2.26
ITPRIPL1 (ITPRIP like 1),3,-0.757
PRR23E (PRR23 family member E),1,0.295
PRR23E (PRR23 family member E),2,-0.447
PRR23E (PRR23 family member E),3,-0.356
SBSN (suprabasin),1,0.0942
SBSN (suprabasin),2,1.25
SBSN (suprabasin),3,2.62
STAG3L3 (STAG3 cohesin complex component like 3 (pseudogene)),1,-0.522
STAG3L3 (STAG3 cohesin complex component like 3 (pseudogene)),2,-0.883
STAG3L3 (STAG3 cohesin complex component like 3 (pseudogene)),3,2.23
OR12D2 (olfactory receptor family 12 subfamily D member 2),1,2.86
OR12D2 (olfactory receptor family 12 subfamily D member 2),2,-0.257
OR12D2 (olfactory receptor family 12 subfamily D member 2),3,1.49
NOBOX (NOBOX oogenesis homeobox),1,-0.162
NOBOX (NOBOX oogenesis homeobox),2,-1.2
NOBOX (NOBOX oogenesis homeobox),3,-0.256
FAM114A2 (family with sequence similarity 114 member A2),1,8.57 (active)
FAM114A2 (family with sequence similarity 114 member A2),2,0.222
FAM114A2 (family with sequence similarity 114 member A2),3,-0.836
ULK1 (unc-51 like autophagy activating kinase 1),1,-0.664
ULK1 (unc-51 like autophagy activating kinase 1),2,1.35
ULK1 (unc-51 like autophagy activating kinase 1),3,-1.1
GRSF1 (G-rich RNA sequence binding factor 1),1,2.55
GRSF1 (G-rich RNA sequence binding factor 1),2,2.65
GRSF1 (G-rich RNA sequence binding factor 1),3,0.585
CHCHD2P10,1,0.12
CHCHD2P10,2,-0.131
CHCHD2P10,3,1.47
TSPAN11 (tetraspanin 11),1,0.498
TSPAN11 (tetraspanin 11),2,-0.669
TSPAN11 (tetraspanin 11),3,-0.747
